Literature values in patent US20070191317A1, “VITAMIN D ANALOG - RAK, METHODS AND USES THEREOF” (WISCONSIN ALUMNI RESEARCH FOUNDATION, priority 2006, published 2007).
For at least one compound, name, drawing or mass did not settle the structure.

Settings: cited from earlier work

Question: Which cell differentiation activity does the source give for C[C@H](CCCC(C)(C)O)[C@H]1CC[C@H]2/C(=C/C=C3C[C@@H](O)C[C@H](O)C3)CCC[C@]12C [1α,25-dihydroxy-19-nor-vitamin D3] here?
Answer: high potency
